According to publication PMC7647112, “The SiaABC threonine phosphorylation pathway controls biofilm formation in response to carbon availability in Pseudomonas aeruginosa” (PLoS ONE, 2020):
Results are given in words; binding and its absence hold for the method and conditions named. For some assays here: Binding can be weak; no strength is given.

Tests used:
[1] = target: T1, SiaC phosphorylated at threonine 68 (SiaC^P) (Pseudomonas aeruginosa); experiment: SEC; SiaB and SiaC mixed in equal molar ratio, supplemented with 10 mM ATP and 20 mM MgCl2, incubated at room temperature for 1 h (SiaC becomes SiaC^P); Hiload 16/600 Superdex 200; peaks analysed by SDS-PAGE; both purified
T1 sequence (chain, phosphothreonine at 68): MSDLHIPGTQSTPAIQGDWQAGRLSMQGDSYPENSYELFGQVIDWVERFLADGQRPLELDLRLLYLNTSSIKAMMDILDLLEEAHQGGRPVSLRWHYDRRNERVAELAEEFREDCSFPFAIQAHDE

[2] = target: T2, SiaC (Pseudomonas aeruginosa); experiment: SEC; SiaB and SiaC mixed in equal molar ratio, incubated at room temperature for 1 h, without ATP and MgCl2; Hiload 16/600 Superdex 200; peaks analysed by SDS-PAGE; both purified
T2 sequence: T1 sequence (chain, phosphothreonine at 68)

SiaB (Pseudomonas aeruginosa) (enzyme)
binding [1]: no binding | binding [2]: binds
